Results are given in words; binding and its absence hold for the method and conditions named. Binding seen in cells or lysates may run through a third protein.

Chains of the proteins cited; added tags and fusions are not shown. Lines headed by an entry give the natural chain unless they say otherwise; changes in a name come on top.
UniProt Q8N122: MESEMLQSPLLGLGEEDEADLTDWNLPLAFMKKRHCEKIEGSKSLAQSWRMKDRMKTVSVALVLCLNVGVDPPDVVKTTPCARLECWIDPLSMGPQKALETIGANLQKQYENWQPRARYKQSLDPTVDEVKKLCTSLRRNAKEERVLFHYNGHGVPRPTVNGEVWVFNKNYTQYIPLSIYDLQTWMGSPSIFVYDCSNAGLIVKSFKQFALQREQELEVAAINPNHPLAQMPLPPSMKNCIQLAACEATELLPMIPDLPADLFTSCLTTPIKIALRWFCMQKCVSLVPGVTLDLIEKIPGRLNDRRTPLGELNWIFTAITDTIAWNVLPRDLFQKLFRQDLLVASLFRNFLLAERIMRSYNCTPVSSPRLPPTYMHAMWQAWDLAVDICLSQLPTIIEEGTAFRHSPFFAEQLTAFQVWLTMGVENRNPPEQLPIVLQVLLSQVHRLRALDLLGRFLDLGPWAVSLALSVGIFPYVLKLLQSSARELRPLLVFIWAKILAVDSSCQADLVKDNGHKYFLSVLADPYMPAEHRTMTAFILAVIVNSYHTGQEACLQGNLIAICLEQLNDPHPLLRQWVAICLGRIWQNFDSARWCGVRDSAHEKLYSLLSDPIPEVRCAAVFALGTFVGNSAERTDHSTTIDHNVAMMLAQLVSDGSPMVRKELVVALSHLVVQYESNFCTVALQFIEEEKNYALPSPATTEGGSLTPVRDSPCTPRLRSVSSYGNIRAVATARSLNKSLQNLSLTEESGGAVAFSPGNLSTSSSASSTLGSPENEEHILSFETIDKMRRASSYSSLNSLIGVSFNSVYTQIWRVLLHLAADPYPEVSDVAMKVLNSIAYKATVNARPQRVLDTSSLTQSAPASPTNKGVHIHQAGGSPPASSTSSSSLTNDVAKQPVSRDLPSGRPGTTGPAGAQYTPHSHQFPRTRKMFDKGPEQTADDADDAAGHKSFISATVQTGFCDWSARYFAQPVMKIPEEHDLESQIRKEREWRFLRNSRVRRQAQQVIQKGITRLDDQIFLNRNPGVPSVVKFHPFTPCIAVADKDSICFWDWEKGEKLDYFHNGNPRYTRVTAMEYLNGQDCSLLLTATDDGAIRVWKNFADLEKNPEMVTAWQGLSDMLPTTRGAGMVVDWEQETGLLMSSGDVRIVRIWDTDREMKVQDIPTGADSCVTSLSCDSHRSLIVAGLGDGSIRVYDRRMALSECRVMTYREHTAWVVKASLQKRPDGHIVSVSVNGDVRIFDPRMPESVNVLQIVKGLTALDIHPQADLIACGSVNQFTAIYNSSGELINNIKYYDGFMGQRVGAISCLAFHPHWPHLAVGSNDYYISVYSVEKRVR
UniProt Q9DCH4: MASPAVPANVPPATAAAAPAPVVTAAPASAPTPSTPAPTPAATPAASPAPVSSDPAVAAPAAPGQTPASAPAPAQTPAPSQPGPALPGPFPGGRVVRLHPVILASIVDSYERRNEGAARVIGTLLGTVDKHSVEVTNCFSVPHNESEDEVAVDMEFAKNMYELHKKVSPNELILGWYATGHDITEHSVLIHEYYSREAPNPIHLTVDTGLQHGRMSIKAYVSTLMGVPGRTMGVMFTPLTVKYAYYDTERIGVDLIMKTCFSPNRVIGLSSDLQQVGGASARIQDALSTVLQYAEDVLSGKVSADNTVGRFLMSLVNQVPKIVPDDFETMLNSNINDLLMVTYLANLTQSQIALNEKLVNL

We go through one substance from publication PMC2813880.

The experiment addresses Myc-tagged raptor (UniProt Q8N122). Put plainly: co-IP; Myc-raptor cotransfected with HA-eIF3f wt or F323A in mouse primary muscle cells, differentiated 4 days, lysed in immunoprecipitation buffer without detergent; immunoprecipitation with anti-Myc, immunoblot.

In the case of “HA-tagged TOS motif mutant eIF3f F323A (from UniProt Q9DCH4)”, the binding result is listed as “no binding”.
